{"source": "the supplement of paper PMC8728848", "assay_in_all_cases": "glycan array binding signal (z-score within array); higher = stronger binding", "settings_in_all_cases": "glycan notation: IUPAC condensed, linker removed", "key": {"[1]": {"target": "Fuc(a1-2)Gal", "procedure,_shortened": "(§1)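 Negative Z-scores can be read as non-binding. The Z-score is calculated within each array and then averaged across arrays of one protein sequence at different concentrations or buffers and across linkers. Arrays, 3228 in all, were curated from the Consortium for Functional Glycomics database and kept only where the protein sequence was available.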"}, "[2]": {"target": "Fuc(a1-2)Gal(b1-3)GalNAc", "procedure,_shortened": "as §1"}, "[3]": {"target": "Fuc(a1-2)Gal(b1-3)GalNAc(a1-3)[Fuc(a1-2)]Gal(b1-4)Glc", "procedure,_shortened": "as §1"}, "[4]": {"target": "Fuc(a1-2)Gal(b1-3)GalNAc(a1-3)[Fuc(a1-2)]Gal(b1-4)GlcNAc", "procedure,_shortened": "as §1"}, "[5]": {"target": "Fuc(a1-2)Gal(b1-3)GalNAc(b1-3)Gal", "procedure,_shortened": "as §1"}, "[6]": {"target": "Fuc(a1-2)Gal(b1-3)GalNAc(b1-3)Gal(a1-4)Gal(b1-4)Glc", "procedure,_shortened": "as §1"}, "[7]": {"target": "Fuc(a1-2)Gal(b1-3)GalNAc(b1-4)[Neu5Ac(a2-3)]Gal(b1-4)Glc", "procedure,_shortened": "as §1"}, "[8]": {"target": "Fuc(a1-2)Gal(b1-3)GlcNAc", "procedure,_shortened": "as §1"}, "[9]": {"target": "Fuc(a1-2)Gal(b1-3)GlcNAc(b1-2)Man(a1-3)[Fuc(a1-2)Gal(b1-3)GlcNAc(b1-2)Man(a1-6)]Man(b1-4)GlcNAc(b1-4)GlcNAc", "procedure,_shortened": "as §1"}, "[10]": {"target": "Fuc(a1-2)Gal(b1-3)GlcNAc(b1-2)Man(a1-3)[Fuc(a1-2)Gal(b1-3)GlcNAc(b1-2)Man(a1-6)]Man(b1-4)GlcNAc(b1-4)[Fuc(a1-6)]GlcNAc", "procedure,_shortened": "as §1"}, "[11]": {"target": "Fuc(a1-2)Gal(b1-3)GlcNAc(b1-3)Gal(b1-4)Glc", "procedure,_shortened": "as §1"}, "[12]": {"target": "Fuc(a1-2)Gal(b1-3)GlcNAc(b1-3)GalNAc", "procedure,_shortened": "as §1"}, "[13]": {"target": "Fuc(a1-2)Gal(b1-3)GlcNAc(b1-3)[Fuc(a1-2)Gal(b1-3)GlcNAc(b1-6)]GalNAc", "procedure,_shortened": "as §1"}, "[14]": {"target": "Fuc(a1-2)Gal(b1-3)GlcNAc(b1-3)[Gal(b1-4)GlcNAc(b1-6)]Gal(b1-4)Glc", "procedure,_shortened": "as §1"}, "[15]": {"target": "Fuc(a1-2)Gal(b1-3)GlcNAc(b1-3)[Neu5Ac(a2-6)Gal(b1-4)GlcNAc(b1-6)]Gal(b1-4)Glc", "procedure,_shortened": "as §1"}, "[16]": {"target": "Fuc(a1-2)Gal(b1-3)GlcNAc6S", "procedure,_shortened": "as §1"}, "[17]": {"target": "Fuc(a1-2)Gal(b1-3)[Fuc(a1-4)]GlcNAc", "procedure,_shortened": "as §1"}, "[18]": {"target": "Fuc(a1-2)Gal(b1-3)[Fuc(a1-4)]GlcNAc(b1-2)Man(a1-3)[Fuc(a1-2)Gal(b1-3)[Fuc(a1-4)]GlcNAc(b1-2)Man(a1-3)]Man(b1-4)GlcNAc(b1-4)GlcNAc", "procedure,_shortened": "as §1"}, "[19]": {"target": "Fuc(a1-2)Gal(b1-3)[Fuc(a1-4)]GlcNAc(b1-2)Man(a1-3)[Fuc(a1-2)Gal(b1-3)[Fuc(a1-4)]GlcNAc(b1-2)Man(a1-6)]Man(b1-4)GlcNAc(b1-4)[Fuc(a1-6)]GlcNAc(b1-4)[Fuc(a1-6)]GlcNAc", "procedure,_shortened": "as §1"}, "[20]": {"target": "Fuc(a1-2)Gal(b1-3)[Fuc(a1-4)]GlcNAc(b1-3)[Fuc(a1-3)[Gal(b1-4)]GlcNAc(b1-6)]Gal(b1-4)Glc", "procedure,_shortened": "as §1"}, "[21]": {"target": "Fuc(a1-2)Gal(b1-3)[Fuc(a1-4)]GlcNAc(b1-3)[Gal(b1-4)GlcNAc(b1-6)]Gal(b1-4)Glc", "procedure,_shortened": "as §1"}, "[22]": {"target": "Fuc(a1-2)Gal(b1-4)Glc", "procedure,_shortened": "as §1"}, "[23]": {"target": "Fuc(a1-2)Gal(b1-4)Glc6S", "procedure,_shortened": "as §1"}, "[24]": {"target": "Fuc(a1-2)Gal(b1-4)GlcNAc", "procedure,_shortened": "as §1"}, "[25]": {"target": "Fuc(a1-2)Gal(b1-4)GlcNAc(b1-2)Man", "procedure,_shortened": "as §1"}, "[26]": {"target": "Fuc(a1-2)Gal(b1-4)GlcNAc(b1-2)Man(a1-3)[Fuc(a1-2)Gal(b1-4)GlcNAc(b1-2)Man(a1-6)]Man(b1-4)GlcNAc(b1-4)GlcNAc", "procedure,_shortened": "as §1"}, "[27]": {"target": "Fuc(a1-2)Gal(b1-4)GlcNAc(b1-2)Man(a1-3)[Fuc(a1-2)Gal(b1-4)GlcNAc(b1-2)Man(a1-6)]Man(b1-4)GlcNAc(b1-4)[Fuc(a1-6)]GlcNAc", "procedure,_shortened": "as §1"}, "[28]": {"target": "Fuc(a1-2)Gal(b1-4)GlcNAc(b1-2)[Fuc(a1-2)Gal(b1-4)GlcNAc(b1-4)]Man(a1-3)[Fuc(a1-2)Gal(b1-4)GlcNAc(b1-2)Man(a1-6)]Man(b1-4)GlcNAc(b1-4)GlcNAc", "procedure,_shortened": "as §1"}, "[29]": {"target": "Fuc(a1-2)Gal(b1-4)GlcNAc(b1-3)Gal(b1-4)GlcNAc", "procedure,_shortened": "as §1"}, "[30]": {"target": "Fuc(a1-2)Gal(b1-4)GlcNAc(b1-3)Gal(b1-4)GlcNAc(b1-2)Man(a1-3)[Fuc(a1-2)Gal(b1-4)GlcNAc(b1-3)Gal(b1-4)GlcNAc(b1-2)Man(a1-6)]Man(b1-4)GlcNAc(b1-4)GlcNAc", "procedure,_shortened": "as §1"}}, "note": "The other results are listed elsewhere or left out.", "data": [{"binder": "Mnn9-2N3 (Aspergillus fumigatus) (protein) MAVARRMRRTNPITLLLAAILAIGFFIFVLSPSTTSASPVKAGSASSSSTSQQRREDNAAENPLSPPTKPFFKSQPVRHDGQQAPPPVVQYNLNQLSSTSTSAANGERILILTPMARFVPEYWDNVVKLTYPHELISIGFIIPKNKEGNAALAALEAAIAKTQSGPIDKRFASISILRQDFEPPLQSQDEKERHKISNQKARRESMSRARNSLLFTTLGPATAWVLWLDADIVETPPTLIQDLTAHDHPVLVPNCYQRYYNSEKKKMDVRPYDYNSWIDSSTAQSMAAEMGPDEILLEGYAEMPTYRTLMAHLADTANPNPKKVIELDGVGGTALMVKAEVHRDGAMFPAFPFYHLVETEGFAKMAKRLGYSVYGLPDYFVSRNFFFFFFFFFFG", "values": [{"measurement": "glycan array binding signal (z-score)", "setting": "[1]", "result": -0.532}, {"measurement": "glycan array binding signal (z-score)", "setting": "[2]", "result": 0.184}, {"measurement": "glycan array binding signal (z-score)", "setting": "[3]", "result": -0.385}, {"measurement": "glycan array binding signal (z-score)", "setting": "[4]", "result": -0.911}, {"measurement": "glycan array binding signal (z-score)", "setting": "[5]", "result": -0.413}, {"measurement": "glycan array binding signal (z-score)", "setting": "[6]", "result": -0.365}, {"measurement": "glycan array binding signal (z-score)", "setting": "[7]", "result": 0.057}, {"measurement": "glycan array binding signal (z-score)", "setting": "[8]", "result": 0.042}, {"measurement": "glycan array binding signal (z-score)", "setting": "[9]", "result": -1.81}, {"measurement": "glycan array binding signal (z-score)", "setting": "[10]", "result": -0.531}, {"measurement": "glycan array binding signal (z-score)", "setting": "[11]", "result": -0.226}, {"measurement": "glycan array binding signal (z-score)", "setting": "[12]", "result": 1.17}, {"measurement": "glycan array binding signal (z-score)", "setting": "[13]", "result": -0.179}, {"measurement": "glycan array binding signal (z-score)", "setting": "[14]", "result": 0.048}, {"measurement": "glycan array binding signal (z-score)", "setting": "[15]", "result": 1.56}, {"measurement": "glycan array binding signal (z-score)", "setting": "[16]", "result": -0.49}, {"measurement": "glycan array binding signal (z-score)", "setting": "[17]", "result": 0.843}, {"measurement": "glycan array binding signal (z-score)", "setting": "[18]", "result": 0.745}, {"measurement": "glycan array binding signal (z-score)", "setting": "[19]", "result": 1.08}, {"measurement": "glycan array binding signal (z-score)", "setting": "[20]", "result": 0.126}, {"measurement": "glycan array binding signal (z-score)", "setting": "[21]", "result": -0.504}, {"measurement": "glycan array binding signal (z-score)", "setting": "[22]", "result": -0.089}, {"measurement": "glycan array binding signal (z-score)", "setting": "[23]", "result": -0.499}, {"measurement": "glycan array binding signal (z-score)", "setting": "[24]", "result": -0.527}, {"measurement": "glycan array binding signal (z-score)", "setting": "[25]", "result": -1.25}, {"measurement": "glycan array binding signal (z-score)", "setting": "[26]", "result": -0.758}, {"measurement": "glycan array binding signal (z-score)", "setting": "[27]", "result": 1.86}, {"measurement": "glycan array binding signal (z-score)", "setting": "[28]", "result": 0.208}, {"measurement": "glycan array binding signal (z-score)", "setting": "[29]", "result": 0.5}, {"measurement": "glycan array binding signal (z-score)", "setting": "[30]", "result": 0.93}]}]}
